The subject of test [1] is TAS2R4 (howler monkey).
The subject of test [2] is TAS2R4 (marmoset).

The structures appear in SMILES notation.

The text below walks through data of publication PMC5062938, “Variation in ligand responses of the bitter taste receptors TAS2R1 and TAS2R4 among New World monkeys” (BMC Evolutionary Biology, 2016).

As usually defined, the EC50 is the concentration giving half of the maximal effect. Read a low EC50 as a more potent agent. `COc1cc2c(c(OC)c1OC)-c1ccc(OC)c(=O)cc1[C@@H](NC(C)=O)CC2` [colchicine]: the EC50 in test [1] was found to be 80 µM; in test [2], 67 µM.
